These are yes or no findings as the source states them, for the method shown. Some results given as binding are weak or reduced against the parent protein; the word gives no strength. Tags and fused reporters may be left off the sequences shown.
Molecular target: T1, Human CD73 27-549 with a C-terminal His6-tag, deglycosylated with PNGaseF (human) (UniProt P21589)
T1 sequence (chain, deglycosylated with PNGaseF; glycan remaining at Asn311): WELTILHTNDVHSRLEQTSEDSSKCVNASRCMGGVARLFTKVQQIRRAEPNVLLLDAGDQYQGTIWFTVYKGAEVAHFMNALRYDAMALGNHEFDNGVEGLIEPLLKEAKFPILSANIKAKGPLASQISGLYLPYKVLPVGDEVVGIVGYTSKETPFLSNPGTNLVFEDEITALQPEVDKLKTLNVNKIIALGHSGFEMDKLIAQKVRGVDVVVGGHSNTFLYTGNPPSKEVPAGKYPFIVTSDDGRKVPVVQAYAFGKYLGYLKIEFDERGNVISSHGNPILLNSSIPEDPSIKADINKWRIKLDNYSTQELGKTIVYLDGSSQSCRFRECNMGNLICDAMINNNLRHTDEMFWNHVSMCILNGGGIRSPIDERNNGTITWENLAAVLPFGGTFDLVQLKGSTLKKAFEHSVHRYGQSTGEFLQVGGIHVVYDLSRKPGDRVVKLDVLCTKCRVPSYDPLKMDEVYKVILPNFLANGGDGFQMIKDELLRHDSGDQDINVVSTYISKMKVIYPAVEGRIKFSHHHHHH
Test: X-ray co-crystal structure

B1: TB19 Fab (Fab, V domains shown)
VH: QEQLQESGPGLVKPSETLSLTCTVSGGSIRNNYYNWIRQPAGKGLEWIGRIYISGTTNSNPSLKSRVTMSIDTSKNQFSLKLSSVTAADTAIYYCAREHYVSGTSLDNWGQGTLVTVSS
VL: EIVMTQSPTTLSLSPGERATLSCRASQSVNTNYFSWYQQKPGLTPRLLIYGTSTRATGIPARFSGSGSGTDFTLTISSLQPEDFGIYYCQQDYNLPYTFGQGTYLEIK
binding: binds
